Experimental findings from the supplement of paper PMC10849652 are described below.

The chains behind the UniProt entries cited, without tags or fusion partners. Where a name states a change or a piece, a line headed by the entry shows the natural chain unless it says otherwise.
UniProt Q9Y5P6: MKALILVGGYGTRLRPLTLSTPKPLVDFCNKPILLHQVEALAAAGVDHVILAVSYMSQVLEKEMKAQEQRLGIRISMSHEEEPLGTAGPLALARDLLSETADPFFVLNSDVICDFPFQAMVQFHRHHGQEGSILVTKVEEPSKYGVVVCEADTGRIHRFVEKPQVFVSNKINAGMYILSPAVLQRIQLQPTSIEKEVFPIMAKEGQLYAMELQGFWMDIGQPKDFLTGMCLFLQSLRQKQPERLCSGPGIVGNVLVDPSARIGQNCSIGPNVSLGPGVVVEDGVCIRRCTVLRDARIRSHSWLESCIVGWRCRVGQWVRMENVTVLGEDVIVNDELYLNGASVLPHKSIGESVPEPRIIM
UniProt P32189: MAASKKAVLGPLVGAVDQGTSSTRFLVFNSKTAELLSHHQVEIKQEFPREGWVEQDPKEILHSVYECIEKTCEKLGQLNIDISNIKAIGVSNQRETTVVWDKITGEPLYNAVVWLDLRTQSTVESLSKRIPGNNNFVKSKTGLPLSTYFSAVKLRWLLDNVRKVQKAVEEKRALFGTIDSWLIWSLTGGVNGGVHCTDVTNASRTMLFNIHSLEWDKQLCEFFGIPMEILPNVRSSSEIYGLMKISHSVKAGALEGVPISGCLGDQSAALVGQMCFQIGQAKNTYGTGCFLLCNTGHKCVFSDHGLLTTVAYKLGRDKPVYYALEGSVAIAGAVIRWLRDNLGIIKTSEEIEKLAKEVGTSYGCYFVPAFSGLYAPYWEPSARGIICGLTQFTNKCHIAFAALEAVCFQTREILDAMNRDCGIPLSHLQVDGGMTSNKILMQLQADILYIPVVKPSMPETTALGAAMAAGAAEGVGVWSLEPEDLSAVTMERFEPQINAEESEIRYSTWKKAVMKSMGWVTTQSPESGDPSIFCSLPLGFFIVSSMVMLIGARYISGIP
UniProt P28799: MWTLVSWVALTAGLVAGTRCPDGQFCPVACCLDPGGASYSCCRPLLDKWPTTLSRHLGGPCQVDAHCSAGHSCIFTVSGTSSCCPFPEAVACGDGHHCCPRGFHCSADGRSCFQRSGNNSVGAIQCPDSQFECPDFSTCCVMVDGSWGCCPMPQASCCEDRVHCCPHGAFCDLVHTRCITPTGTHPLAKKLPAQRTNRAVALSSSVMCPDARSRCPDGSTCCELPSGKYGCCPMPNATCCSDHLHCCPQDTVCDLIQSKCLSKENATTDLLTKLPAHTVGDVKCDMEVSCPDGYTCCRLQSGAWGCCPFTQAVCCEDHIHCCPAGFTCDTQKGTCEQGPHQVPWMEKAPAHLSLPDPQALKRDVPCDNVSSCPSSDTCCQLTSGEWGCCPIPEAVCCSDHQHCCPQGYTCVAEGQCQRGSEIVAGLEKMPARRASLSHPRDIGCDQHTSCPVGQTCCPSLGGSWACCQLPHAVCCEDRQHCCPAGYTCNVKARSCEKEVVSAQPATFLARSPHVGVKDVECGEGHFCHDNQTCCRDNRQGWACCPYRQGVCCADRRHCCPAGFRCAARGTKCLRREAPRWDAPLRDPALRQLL
UniProt P62993, whole entry, looked up: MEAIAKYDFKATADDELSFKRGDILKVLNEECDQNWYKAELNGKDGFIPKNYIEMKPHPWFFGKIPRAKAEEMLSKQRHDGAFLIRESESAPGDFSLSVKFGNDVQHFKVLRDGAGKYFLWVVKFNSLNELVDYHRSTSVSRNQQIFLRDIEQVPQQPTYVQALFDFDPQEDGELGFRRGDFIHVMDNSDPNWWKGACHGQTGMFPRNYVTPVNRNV
UniProt Q9BRT9, whole entry, looked up: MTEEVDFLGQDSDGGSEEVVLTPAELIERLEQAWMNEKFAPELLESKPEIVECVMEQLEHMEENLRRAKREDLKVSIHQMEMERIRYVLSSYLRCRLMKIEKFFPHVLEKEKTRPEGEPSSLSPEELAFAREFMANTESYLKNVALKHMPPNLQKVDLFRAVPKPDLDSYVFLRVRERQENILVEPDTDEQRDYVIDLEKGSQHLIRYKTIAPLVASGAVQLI
UniProt O75791: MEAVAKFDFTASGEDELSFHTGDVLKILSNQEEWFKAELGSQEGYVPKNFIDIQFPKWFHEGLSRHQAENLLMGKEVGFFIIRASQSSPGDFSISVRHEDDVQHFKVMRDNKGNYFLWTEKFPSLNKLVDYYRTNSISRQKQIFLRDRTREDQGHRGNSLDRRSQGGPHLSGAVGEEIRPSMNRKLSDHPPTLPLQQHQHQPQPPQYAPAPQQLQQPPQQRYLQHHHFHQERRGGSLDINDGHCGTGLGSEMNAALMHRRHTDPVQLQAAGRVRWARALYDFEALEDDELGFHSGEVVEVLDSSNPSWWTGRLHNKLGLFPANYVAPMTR
UniProt Q8N335: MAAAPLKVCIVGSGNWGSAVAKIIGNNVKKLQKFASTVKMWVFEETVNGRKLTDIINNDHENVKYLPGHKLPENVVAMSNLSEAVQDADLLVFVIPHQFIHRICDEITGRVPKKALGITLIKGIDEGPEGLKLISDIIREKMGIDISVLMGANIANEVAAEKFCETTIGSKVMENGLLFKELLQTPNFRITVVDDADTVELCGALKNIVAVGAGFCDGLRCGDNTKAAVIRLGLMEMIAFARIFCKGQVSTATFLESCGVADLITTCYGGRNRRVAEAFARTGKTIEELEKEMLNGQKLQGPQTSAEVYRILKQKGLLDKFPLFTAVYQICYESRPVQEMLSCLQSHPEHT
UniProt Q14344, whole entry, looked up: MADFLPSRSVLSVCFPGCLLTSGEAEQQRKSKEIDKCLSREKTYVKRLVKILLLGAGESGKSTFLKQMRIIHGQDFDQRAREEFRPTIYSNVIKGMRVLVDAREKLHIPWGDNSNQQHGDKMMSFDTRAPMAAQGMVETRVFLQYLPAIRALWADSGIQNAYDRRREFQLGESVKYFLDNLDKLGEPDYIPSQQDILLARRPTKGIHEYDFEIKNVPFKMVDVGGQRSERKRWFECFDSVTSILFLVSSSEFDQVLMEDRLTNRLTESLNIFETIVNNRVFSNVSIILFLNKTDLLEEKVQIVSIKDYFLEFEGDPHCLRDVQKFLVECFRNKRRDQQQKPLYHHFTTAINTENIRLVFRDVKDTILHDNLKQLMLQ
UniProt Q9UKJ3: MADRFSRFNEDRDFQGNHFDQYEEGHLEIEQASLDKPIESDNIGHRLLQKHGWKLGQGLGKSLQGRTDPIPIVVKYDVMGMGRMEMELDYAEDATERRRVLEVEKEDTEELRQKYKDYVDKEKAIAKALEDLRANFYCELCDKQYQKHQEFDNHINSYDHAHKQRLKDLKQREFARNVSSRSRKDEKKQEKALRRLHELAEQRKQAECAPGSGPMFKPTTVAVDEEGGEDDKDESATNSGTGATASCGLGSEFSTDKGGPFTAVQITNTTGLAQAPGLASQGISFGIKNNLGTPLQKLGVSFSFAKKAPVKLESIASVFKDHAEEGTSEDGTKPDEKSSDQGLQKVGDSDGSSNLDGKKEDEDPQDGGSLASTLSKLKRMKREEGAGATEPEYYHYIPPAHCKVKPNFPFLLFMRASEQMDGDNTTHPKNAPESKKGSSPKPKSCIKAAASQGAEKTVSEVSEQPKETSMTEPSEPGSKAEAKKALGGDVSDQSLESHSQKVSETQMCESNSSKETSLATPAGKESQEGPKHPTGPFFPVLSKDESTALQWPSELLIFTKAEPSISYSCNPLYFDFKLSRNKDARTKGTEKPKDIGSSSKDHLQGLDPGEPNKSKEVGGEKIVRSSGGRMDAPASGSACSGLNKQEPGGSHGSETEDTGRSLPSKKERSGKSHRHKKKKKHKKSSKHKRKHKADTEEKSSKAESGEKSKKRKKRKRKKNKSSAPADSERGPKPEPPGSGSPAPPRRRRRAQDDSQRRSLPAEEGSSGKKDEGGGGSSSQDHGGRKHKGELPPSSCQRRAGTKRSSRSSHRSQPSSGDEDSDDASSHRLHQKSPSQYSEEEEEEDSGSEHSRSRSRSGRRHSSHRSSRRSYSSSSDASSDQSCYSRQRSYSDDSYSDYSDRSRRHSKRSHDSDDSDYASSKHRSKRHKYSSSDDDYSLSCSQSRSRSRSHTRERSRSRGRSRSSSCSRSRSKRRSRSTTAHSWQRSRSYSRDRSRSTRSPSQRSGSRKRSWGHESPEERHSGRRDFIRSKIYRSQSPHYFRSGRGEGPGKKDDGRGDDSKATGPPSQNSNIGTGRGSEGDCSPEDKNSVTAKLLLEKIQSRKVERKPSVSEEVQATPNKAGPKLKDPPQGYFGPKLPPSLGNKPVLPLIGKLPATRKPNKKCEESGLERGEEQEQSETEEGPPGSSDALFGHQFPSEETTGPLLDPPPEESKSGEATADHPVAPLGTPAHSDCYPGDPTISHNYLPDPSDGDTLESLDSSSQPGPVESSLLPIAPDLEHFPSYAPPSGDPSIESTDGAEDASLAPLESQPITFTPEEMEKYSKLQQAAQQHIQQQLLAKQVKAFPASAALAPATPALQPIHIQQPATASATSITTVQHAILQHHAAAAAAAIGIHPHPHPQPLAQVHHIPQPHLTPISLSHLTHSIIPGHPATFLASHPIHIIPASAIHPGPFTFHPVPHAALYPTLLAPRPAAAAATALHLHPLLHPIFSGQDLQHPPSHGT
UniProt Q8IXQ4: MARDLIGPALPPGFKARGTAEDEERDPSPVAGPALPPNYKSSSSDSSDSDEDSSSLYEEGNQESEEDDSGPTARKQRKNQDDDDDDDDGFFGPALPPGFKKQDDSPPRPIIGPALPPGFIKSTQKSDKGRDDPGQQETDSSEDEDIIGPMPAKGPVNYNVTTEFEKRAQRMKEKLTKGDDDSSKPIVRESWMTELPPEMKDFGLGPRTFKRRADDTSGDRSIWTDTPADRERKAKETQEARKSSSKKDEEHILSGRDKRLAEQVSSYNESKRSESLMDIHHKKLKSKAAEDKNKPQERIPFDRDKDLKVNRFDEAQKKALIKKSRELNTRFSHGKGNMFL
UniProt Q8TDQ7: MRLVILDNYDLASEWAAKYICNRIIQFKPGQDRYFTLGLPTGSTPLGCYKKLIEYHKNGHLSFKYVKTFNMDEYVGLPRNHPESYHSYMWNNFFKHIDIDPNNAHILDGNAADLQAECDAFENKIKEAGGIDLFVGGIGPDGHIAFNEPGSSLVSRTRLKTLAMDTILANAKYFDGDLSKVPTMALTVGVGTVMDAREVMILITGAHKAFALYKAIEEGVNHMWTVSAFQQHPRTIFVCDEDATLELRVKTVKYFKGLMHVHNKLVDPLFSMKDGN
UniProt O43292: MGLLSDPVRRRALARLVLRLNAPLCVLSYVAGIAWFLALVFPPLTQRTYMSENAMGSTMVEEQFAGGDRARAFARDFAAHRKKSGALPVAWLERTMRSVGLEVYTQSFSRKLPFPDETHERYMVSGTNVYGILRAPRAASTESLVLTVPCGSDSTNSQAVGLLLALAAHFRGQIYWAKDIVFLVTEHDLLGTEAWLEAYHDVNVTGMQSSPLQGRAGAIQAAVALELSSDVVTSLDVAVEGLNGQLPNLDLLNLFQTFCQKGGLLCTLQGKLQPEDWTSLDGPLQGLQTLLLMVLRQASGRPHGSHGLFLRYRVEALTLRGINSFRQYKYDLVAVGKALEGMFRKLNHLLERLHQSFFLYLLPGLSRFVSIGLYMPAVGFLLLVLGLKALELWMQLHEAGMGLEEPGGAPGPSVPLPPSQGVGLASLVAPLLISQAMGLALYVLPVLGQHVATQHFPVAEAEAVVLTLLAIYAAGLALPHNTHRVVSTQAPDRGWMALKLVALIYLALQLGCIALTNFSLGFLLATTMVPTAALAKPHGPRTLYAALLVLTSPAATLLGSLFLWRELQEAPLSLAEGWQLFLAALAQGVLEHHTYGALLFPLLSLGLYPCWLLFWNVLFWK
UniProt Q5VW38: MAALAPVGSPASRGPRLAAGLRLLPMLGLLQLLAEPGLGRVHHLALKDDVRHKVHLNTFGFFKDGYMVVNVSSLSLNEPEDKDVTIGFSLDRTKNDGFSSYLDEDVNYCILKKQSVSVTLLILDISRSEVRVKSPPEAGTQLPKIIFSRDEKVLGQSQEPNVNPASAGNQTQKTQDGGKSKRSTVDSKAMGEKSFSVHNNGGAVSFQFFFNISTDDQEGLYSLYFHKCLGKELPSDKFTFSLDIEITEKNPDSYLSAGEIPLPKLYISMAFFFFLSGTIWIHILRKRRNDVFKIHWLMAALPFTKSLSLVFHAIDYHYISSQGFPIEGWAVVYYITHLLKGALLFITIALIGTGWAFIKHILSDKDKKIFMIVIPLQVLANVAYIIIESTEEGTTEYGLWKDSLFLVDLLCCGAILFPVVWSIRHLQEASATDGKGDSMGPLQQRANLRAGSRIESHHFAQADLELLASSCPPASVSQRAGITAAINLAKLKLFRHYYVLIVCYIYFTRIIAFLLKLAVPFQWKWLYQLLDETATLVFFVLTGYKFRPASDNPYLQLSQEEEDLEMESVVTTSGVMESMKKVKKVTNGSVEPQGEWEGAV
UniProt Q9Y3E0: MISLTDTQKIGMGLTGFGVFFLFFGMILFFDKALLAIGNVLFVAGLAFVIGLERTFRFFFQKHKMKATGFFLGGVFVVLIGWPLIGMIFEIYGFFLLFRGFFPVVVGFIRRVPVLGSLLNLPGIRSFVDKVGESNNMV

This is one part of the list.

Compound in the experiment: Cn1cc(-c2ccc3c(c2)CCN3C(=O)Cc2cccc(C(F)(F)F)c2)c2c(N)ncnc21
As to the kind of experiment: log2 fold change, soluble protein after heating vs DMSO (PISA); higher = thermal stabilisation; K562 cells, 10 uM, 30 min; active = over 0.2 and 3.5 SD of the protein, either way, in both replicates (recomputed). The method in brief:
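For each measurement, 10 μM compound was applied for 30 min to K562 cells at 2×10^6 cells/mL. Aliquots were heated for 3 min across 48°C-58°C, pooled, and extracted in PBS with 0.5% NP-40 at 4°C; the supernatant after 21,000xg for 90 min was soluble protein. This was quantified by TMTpro 16plex LC-MS/MS with channel sums equalised, and thermal stability was reported relative to control samples from duplicates, on a log2 fold-change scale.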
Regarding GMPPB isoform 2 (UniProt Q9Y5P6), the log2 fold change is inactive: 0.053.

Consider GK (UniProt P32189), for which the log2 fold change was inactive: 0.031.

Regarding GRN (UniProt P28799), the log2 fold change is inactive: 0.003.

GRB2 (UniProt P62993): the log2 fold change was inactive: 0.049.

With GINS4 (UniProt Q9BRT9), the log2 fold change was inactive: 0.059.

Take GRAP2 (UniProt O75791): the log2 fold change is inactive: 0.

Regarding GPD1L (UniProt Q8N335), the log2 fold change was inactive: 0.11.

For GNA13 (UniProt Q14344), the log2 fold change is inactive: 0.033.

GOSR1 (UniProt O95249): the log2 fold change is inactive: 0.012.

Regarding GPATCH8 (UniProt Q9UKJ3), the log2 fold change was inactive: 0.019.

Regarding GPALPP1 (UniProt Q8IXQ4), the log2 fold change is inactive: 0.019.

With GPD2 (UniProt P43304), the log2 fold change is inactive: 0.002.

GPRIN1 (UniProt Q7Z2K8): the log2 fold change was inactive: 0.087.

Take GPN3 isoform 2 (UniProt Q9UHW5): the log2 fold change is inactive: 0.011.

GNPDA2 (UniProt Q8TDQ7): the log2 fold change is inactive: 0.089.

For GMPR2 isoform 2 (UniProt Q9P2T1), the log2 fold change is inactive: 0.011.

For the target GNE isoform 2 (UniProt Q9Y223), the log2 fold change is inactive: 0.1.

Take GPAA1 (UniProt O43292): the log2 fold change was inactive: 0.01.

As for GPR107 (UniProt Q5VW38), the log2 fold change is inactive: 0.05.

For the target GORASP2 isoform 3 (UniProt Q9H8Y8), the log2 fold change is inactive: 0.006.

On to GOLIM4 (UniProt O00461), for which the log2 fold change was inactive: 0.006.

With GPN1 isoform 5 (UniProt Q9HCN4), the log2 fold change was inactive: 0.045.

For GOLT1B (UniProt Q9Y3E0), the log2 fold change is inactive: 0.017.
